Results as given in article PMC4264851.

T1: Utp4-TAP (S. cerevisiae) (UniProt Q06679)
T1 sequence: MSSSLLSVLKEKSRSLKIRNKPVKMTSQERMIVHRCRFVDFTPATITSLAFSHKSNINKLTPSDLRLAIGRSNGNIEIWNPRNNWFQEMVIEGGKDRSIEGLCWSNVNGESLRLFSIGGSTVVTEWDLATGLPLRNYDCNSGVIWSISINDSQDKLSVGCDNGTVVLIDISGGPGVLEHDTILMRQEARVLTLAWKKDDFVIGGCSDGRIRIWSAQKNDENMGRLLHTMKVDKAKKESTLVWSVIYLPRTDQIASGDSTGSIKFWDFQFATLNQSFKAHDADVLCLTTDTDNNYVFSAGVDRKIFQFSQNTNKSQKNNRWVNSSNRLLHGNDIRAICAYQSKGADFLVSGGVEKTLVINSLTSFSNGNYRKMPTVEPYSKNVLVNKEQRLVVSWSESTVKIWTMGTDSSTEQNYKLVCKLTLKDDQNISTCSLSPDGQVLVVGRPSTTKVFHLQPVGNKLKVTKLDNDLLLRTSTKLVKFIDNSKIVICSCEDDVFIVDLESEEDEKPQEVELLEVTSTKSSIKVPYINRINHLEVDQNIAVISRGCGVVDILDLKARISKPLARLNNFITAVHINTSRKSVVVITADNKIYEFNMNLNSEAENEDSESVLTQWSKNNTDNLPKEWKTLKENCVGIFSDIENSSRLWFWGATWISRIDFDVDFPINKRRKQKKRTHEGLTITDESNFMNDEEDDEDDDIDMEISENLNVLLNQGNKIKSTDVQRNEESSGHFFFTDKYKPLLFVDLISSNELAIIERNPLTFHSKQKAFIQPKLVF

T2: Nan1-HA (S. cerevisiae) (UniProt Q02931)
T2 sequence: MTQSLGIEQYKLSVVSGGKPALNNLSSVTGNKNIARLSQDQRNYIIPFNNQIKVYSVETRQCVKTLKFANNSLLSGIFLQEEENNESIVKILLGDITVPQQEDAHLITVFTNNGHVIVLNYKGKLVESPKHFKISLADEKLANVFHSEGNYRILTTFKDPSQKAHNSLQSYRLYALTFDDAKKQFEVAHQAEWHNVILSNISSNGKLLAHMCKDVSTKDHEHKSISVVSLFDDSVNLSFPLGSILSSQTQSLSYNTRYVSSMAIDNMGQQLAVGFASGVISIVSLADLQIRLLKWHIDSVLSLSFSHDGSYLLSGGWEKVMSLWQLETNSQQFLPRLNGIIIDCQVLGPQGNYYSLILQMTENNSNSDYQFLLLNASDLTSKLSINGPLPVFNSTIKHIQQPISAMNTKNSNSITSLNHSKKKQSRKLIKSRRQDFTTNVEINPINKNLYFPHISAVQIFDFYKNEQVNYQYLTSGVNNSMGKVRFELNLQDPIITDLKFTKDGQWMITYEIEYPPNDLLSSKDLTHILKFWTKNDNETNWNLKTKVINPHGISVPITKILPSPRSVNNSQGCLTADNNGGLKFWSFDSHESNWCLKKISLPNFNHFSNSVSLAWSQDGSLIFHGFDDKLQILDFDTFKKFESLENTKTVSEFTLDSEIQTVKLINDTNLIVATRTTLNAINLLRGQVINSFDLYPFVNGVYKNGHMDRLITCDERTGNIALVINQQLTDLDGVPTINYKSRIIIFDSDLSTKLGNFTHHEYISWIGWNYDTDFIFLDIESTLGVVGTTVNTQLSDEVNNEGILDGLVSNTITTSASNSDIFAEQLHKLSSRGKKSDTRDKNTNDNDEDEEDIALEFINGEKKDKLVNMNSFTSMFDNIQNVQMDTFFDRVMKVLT

T3: Utp12-FLAG (S. cerevisiae) (UniProt Q12220)
T3 sequence: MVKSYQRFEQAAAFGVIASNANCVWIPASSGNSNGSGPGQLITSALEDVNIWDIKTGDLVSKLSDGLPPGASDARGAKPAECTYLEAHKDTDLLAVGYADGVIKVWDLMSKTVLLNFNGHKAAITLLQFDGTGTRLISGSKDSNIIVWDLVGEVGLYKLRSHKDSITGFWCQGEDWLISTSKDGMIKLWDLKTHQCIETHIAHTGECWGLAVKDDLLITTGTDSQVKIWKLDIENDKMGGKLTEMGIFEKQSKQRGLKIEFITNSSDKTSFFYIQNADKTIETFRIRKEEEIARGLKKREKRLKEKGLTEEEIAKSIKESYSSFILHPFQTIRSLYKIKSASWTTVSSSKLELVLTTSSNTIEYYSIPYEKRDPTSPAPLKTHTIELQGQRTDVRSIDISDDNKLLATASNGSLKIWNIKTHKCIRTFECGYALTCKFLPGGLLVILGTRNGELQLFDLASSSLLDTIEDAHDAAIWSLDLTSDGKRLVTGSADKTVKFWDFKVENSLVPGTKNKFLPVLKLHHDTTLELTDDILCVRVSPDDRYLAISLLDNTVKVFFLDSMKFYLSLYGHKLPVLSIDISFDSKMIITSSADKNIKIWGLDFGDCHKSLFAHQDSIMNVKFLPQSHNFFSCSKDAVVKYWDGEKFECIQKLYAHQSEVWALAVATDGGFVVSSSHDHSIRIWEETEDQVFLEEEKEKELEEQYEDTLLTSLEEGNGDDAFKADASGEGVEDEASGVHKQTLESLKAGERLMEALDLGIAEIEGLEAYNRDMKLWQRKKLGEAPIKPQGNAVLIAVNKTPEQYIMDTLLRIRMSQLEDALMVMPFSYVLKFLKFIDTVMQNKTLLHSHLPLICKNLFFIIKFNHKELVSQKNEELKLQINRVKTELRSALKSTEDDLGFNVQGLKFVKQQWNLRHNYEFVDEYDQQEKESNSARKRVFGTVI

T4: Utp21-TAP (S. cerevisiae) (UniProt Q06078)
T4 sequence: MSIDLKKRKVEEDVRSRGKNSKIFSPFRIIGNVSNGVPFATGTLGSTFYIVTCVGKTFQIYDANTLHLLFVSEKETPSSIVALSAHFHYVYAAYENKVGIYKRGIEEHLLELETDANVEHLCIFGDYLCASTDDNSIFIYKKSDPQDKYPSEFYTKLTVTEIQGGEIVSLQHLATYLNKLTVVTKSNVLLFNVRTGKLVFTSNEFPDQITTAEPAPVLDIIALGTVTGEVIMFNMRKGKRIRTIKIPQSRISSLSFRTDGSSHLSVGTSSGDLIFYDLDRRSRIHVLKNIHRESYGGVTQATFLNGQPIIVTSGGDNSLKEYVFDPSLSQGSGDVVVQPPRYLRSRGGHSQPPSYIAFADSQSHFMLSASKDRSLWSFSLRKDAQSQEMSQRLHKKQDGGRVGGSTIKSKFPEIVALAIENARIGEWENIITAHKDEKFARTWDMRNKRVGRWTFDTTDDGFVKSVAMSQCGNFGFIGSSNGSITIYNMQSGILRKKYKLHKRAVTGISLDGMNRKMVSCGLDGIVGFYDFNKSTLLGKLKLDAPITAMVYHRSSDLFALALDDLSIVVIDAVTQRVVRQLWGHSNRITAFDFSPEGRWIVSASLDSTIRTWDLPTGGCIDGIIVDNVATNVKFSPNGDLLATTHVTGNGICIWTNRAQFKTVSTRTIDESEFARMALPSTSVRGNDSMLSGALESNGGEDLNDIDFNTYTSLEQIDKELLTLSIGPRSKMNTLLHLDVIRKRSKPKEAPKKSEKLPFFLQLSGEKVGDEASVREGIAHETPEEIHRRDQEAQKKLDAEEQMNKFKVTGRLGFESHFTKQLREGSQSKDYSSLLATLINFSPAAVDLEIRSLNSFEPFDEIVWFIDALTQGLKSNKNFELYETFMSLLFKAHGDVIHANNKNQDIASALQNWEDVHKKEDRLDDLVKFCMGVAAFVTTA


Experiments:
[1] = biological target: T1, Utp4-TAP (S. cerevisiae); experiment: affinity purification with mass spectrometry; Utp4-TAP, Utp5, Utp8, Utp9 and Utp15-FLAG co-expressed in SF21 cells (bacmid K2123), without Nan1 and Utp10; one-step, bait Utp4-TAP on IgG Sepharose, TEV elution; SDS-PAGE, Coomassie, MS of bands
[2] = biological target: T2, Nan1-HA (S. cerevisiae); experiment: affinity purification with mass spectrometry; bacmid K2000 (all seven tUTP candidates); two-step: anti-FLAG eluate (Utp15-FLAG) purified again on anti-HA affinity matrix with Nan1-HA as bait, HA peptide elution; SDS-PAGE, Coomassie, MS of bands
[3] = biological target: T1, Utp4-TAP (S. cerevisiae); experiment: affinity purification with mass spectrometry; only Utp4-TAP, Utp5 and Utp15-FLAG co-expressed in SF21 cells (bacmid K2209); one-step, bait Utp4-TAP on IgG-coupled beads, TEV elution; SDS-PAGE and MS
[4] = biological target: T3, Utp12-FLAG (S. cerevisiae); experiment: affinity purification with mass spectrometry; Pwp2, Utp6-HA, Utp12-FLAG, Utp13, Utp18 and Utp21 co-expressed in SF21 cells (bacmid K1992); one-step, bait Utp12-FLAG on anti-FLAG affinity matrix, FLAG peptide elution; SDS-PAGE, Coomassie, MS of bands
[5] = biological target: T4, Utp21-TAP (S. cerevisiae); experiment: affinity purification with mass spectrometry; only Utp21-TAP, Utp6-HA, Utp18 and Pwp2 co-expressed in SF21 cells (bacmid K2137); one-step, bait Utp21-TAP on IgG-coupled beads with TEV elution, or bait Utp6-HA by anti-HA affinity purification; SDS-PAGE and MS

Row | binding [1] | binding [2] | binding [3] | binding [4] | binding [5] | Binder
1 | binds | binds weakly | binds | – | – | Utp15-FLAG (protein, UniProt Q04305 1-513) MSTARPRIITSKAPLLPQQTTPEQRYWRQYTSAQLVKEHNSVTHISFNPQHPHDFAVTSSTRVQIFSSRTRQVIKTFSRFKDVVYSASFRSDGKLLCAGDATGLVSVYDSYNPRTILLSINASTHPTHVTKFHTQDNKILATASDDRVTRLWDISNAYEPQLELTGATDYVRTLSFIPAAPHLVATGSYDGLIRLYDTRSSGSTPIYSLNHDQPVENVIAVSPTQIVSCGGNNFKVWDLTSNKKLYERGNFNKAVTCLDYVENFDSPMQSALIASSLDGHVKVFDPLDNFQVKFGWKFSGPVLSCAVSPSTAQGNRHLVAGLSSGLLAIRTKKKEKRSSDKENAPASFNKNAKSNNFQRMMRGSEYQGDQEHIIHNDKVRSQRRMRAFERNINQFKWSEALDNAFVPGMAKELTLTVLQELRKRGKVRVALYGRDESTLEPLLNWCLKGIEDVRSASIVADWVAVVLELYGNTLESSPVLQELMIDLKTKVRHEIHKSKEAQRIEGMLQLLTS
2 | – | – | – | binds | binds | Pwp2 (protein, UniProt P25635 1-923) MKSDFKFSNLLGTVYRQGNITFSDDGKQLLSPVGNRVSVFDLINNKSFTFEYEHRKNIAAIDLNKQGTLLISIDEDGRAILVNFKARNVLHHFNFKEKCSAVKFSPDGRLFALASGRFLQIWKTPDVNKDRQFAPFVRHRVHAGHFQDITSLTWSQDSRFILTTSKDLSAKIWSVDSEEKNLAATTFNGHRDYVMGAFFSHDQEKIYTVSKDGAVFVWEFTKRPSDDDDNESEDDDKQEEVDISKYSWRITKKHFFYANQAKVKCVTFHPATRLLAVGFTSGEFRLYDLPDFTLIQQLSMGQNPVNTVSVNQTGEWLAFGSSKLGQLLVYEWQSESYILKQQGHFDSTNSLAYSPDGSRVVTASEDGKIKVWDITSGFCLATFEEHTSSVTAVQFAKRGQVMFSSSLDGTVRAWDLIRYRNFRTFTGTERIQFNCLAVDPSGEVVCAGSLDNFDIHVWSVQTGQLLDALSGHEGPVSCLSFSQENSVLASASWDKTIRIWSIFGRSQQVEPIEVYSDVLALSMRPDGKEVAVSTLKGQISIFNIEDAKQVGNIDCRKDIISGRFNQDRFTAKNSERSKFFTTIHYSFDGMAIVAGGNNNSICLYDVPNEVLLKRFIVSRNMALNGTLEFLNSKKMTEAGSLDLIDDAGENSDLEDRIDNSLPGSQRGGDLSTRKMRPEVRVTSVQFSPTANAFAAASTEGLLIYSTNDTILFDPFDLDVDVTPHSTVEALREKQFLNALVMAFRLNEEYLINKVYEAIPIKEIPLVASNIPAIYLPRILKFIGDFAIESQHIEFNLIWIKALLSASGGYINEHKYLFSTAMRSIQRFIVRVAKEVVNTTTDNKYTYRFLVSTDGSMEDGAADDDEVLLKDDADEDNEENEENDVVMESDDEEGWIGFNGKDNKLPLSNENDSSDEEENEKELP

No constants are given. Whether binding was seen depends on the method and setting. In cells and extracts the contact can be indirect. Here binding means that the protein was enriched with, or labelled near, the bait; the list need not be complete. For some assays here: Sequences can lack the tags named with a protein.
